One substance from publication PMC8039524 can be followed below.

Chains of the proteins cited; added tags and fusions are not shown.
UniProt Q3V6T2: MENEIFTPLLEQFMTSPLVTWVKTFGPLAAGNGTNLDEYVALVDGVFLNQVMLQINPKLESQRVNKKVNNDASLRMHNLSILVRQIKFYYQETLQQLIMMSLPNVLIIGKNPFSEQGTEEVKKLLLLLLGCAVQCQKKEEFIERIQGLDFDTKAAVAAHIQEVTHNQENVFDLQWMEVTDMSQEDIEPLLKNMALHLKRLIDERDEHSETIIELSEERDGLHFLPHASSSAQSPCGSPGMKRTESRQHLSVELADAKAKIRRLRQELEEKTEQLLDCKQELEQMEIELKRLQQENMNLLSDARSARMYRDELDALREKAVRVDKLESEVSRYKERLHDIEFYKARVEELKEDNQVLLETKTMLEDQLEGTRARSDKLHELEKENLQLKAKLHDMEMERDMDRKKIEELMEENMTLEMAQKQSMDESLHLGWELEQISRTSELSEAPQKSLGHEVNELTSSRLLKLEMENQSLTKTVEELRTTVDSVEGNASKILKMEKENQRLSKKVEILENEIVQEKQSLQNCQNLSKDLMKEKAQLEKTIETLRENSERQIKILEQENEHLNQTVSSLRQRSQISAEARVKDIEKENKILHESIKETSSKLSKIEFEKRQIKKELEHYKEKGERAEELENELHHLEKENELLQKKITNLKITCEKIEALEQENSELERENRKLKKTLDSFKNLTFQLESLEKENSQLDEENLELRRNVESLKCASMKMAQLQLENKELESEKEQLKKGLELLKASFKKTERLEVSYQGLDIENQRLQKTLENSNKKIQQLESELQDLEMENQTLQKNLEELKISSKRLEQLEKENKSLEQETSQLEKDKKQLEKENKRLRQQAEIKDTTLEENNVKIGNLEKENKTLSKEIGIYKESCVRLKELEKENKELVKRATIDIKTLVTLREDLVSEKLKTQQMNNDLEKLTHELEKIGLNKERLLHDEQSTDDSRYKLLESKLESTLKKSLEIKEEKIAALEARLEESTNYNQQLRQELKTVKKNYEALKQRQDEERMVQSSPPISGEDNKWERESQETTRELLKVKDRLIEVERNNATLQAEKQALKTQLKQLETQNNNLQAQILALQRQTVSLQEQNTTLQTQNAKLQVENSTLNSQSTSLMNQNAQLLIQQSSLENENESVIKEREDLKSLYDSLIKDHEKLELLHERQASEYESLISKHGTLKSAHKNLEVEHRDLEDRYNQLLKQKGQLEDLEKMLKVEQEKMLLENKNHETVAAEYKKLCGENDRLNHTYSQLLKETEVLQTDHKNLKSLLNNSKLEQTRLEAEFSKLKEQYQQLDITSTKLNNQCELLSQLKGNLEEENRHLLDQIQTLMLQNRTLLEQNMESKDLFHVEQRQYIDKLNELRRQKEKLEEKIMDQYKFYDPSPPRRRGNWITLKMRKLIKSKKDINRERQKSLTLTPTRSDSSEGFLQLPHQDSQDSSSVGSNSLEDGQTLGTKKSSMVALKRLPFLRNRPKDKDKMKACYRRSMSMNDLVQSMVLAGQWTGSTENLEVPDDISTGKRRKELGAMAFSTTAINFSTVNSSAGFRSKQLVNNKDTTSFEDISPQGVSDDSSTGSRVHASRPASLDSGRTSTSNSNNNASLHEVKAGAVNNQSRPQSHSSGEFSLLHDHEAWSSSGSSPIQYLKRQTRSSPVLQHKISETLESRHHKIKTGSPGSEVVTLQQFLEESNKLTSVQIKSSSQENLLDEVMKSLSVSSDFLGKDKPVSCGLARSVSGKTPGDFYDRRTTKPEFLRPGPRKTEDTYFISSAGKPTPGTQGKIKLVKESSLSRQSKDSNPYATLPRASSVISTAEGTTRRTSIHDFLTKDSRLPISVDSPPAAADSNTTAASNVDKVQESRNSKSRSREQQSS

This assay concerns the target Girdin (girders of actin filament) (human (endogenous in BxPC-3 and PANC-1)) (UniProt Q3V6T2). Description: co-IP; endogenous proteins in NP40 lysates (1000 ug) of BxPC-3 and PANC-1 cells; overnight at 4°C with relevant antibodies bound to Glutathione Sepharose beads; anti-Girdin antibodies in IPs, blotting with P62 antibodies.

No constants are given. Whether binding was seen depends on the method and setting. In cells and extracts the contact can be indirect. Some binding calls cover weakened binding; strength is not graded here.

Consider “P62/SQSTM1 (Sequestosome-1) (from UniProt Q13501 1-440)”, for which the binding result is given as “binds”.
